Assay: 52Mn labeling efficiency at different ligand concentrations (radio-TLC)
Details: 37 °C, 5 min

SMILES | ligand concentration for complete radiolabeling with ^52Mn
O=C(O)CN1CCOCCN(CC(=O)O)Cc2cccc(n2)C1 [H23,9-OPC2A, 6-Oxa-3,9,15-triazabicyclo(9.3.1)pentadeca-1(15),11,13-triene-3,9-diacetic acid] | 150 µM
O=C(O)CN1CCNCCN(CC(=O)O)Cc2cccc(n2)C1 [H23,9-PC2A, pyclen-3,9-diacetate] | 75 µM
